{"source": "patent US7074459B2", "about": "“Method for preserving wood” (priority 2003, dated 2006)", "key": {"[1]": {"assay": "ASTM 1413 soil bottles with no fungus (monitor leaching of chemicals)", "conditions": "1% treatment, unleached, 12 weeks"}, "[2]": {"assay": "Percentage weight gain of wood after chemical treatment", "conditions": "1% treatment, unleached"}}}
{"smiles": "OC[P+](CO)(CO)CO.[O-][n+]1ccccc1[S-]", "note": "[Compound 8]", "values": [{"measurement": "Wt. Loss % (No Fungus)", "setting": "[1]", "result": "−0.30", "unit": "%"}, {"measurement": "WPG (%) Percentage Weight Gain after Chemical Treatment", "setting": "[2]", "result": 1.165, "unit": "%"}]}
